Results are given in words; binding and its absence hold for the method and conditions named. For part of these data: Tags and fused reporters may be left off the sequences shown.
Key:
Experiment in all cases: SEC; analytical UPLC, Zenix SEC-150, 1.0 mL/min, proteins at 19 μM in 20 mM HEPES pH 7.5, 150 mM NaCl, without DTT; mixtures kept on ice for at least 30 min; compared with gel filtration standards; both purified
[1] = biological target: T1, His6ΔTraW (aa 51–210) (E. coli F plasmid) (UniProt P18472)
T1 sequence: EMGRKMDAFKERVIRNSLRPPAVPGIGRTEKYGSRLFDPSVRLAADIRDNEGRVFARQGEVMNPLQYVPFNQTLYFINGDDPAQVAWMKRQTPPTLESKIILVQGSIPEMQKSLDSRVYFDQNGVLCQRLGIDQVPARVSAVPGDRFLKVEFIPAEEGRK

[2] = biological target: TrbBWT (E. coli F plasmid) (UniProt P18035)
[3] = biological target: T2, His6TraW (E. coli F plasmid) (UniProt P18472)
T2 sequence: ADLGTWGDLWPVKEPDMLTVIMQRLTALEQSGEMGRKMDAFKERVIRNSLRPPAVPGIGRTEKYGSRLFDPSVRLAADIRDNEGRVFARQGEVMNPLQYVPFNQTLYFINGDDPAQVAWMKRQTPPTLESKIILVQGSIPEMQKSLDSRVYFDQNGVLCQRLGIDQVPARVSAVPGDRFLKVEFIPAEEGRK

Measured: binding

B1: TrbBWT (enzyme, UniProt P18035 23-181)
chain: RDEIERLWNPQGMATQPAQPAAGTSARTAKPAPRWFRLSNGRQVNLADWKVVLFMQGHCPYCHQFDPVLKQLAQQYGFSVFSYTLDGQGDTAFPEALPVPPDVMQTFFPNIPVATPTTFLVNVNTLEALPLLQGATDAAGFMARVDTVLQMYGGKKGAK
no binding (tested: 19 μM): [1] | [2] | [3]

Source: paper PMC11315126
